Assay results reported in the supplement of paper PMC10849652.
The list shows a part of the results.

By UniProt entry, the sequences of proteins in these tests, tags left out. Where a name states a change or a piece, a line headed by the entry shows the natural chain unless it says otherwise.
UniProt O60704: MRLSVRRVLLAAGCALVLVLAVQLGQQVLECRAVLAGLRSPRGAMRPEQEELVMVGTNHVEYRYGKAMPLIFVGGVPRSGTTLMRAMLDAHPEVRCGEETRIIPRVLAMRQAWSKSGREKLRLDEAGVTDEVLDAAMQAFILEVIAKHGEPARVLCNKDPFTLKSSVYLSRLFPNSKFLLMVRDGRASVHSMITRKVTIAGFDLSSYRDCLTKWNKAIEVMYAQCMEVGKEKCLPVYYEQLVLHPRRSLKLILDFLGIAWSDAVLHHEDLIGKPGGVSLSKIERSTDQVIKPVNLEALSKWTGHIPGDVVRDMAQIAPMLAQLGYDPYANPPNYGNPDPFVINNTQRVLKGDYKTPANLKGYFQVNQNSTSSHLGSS
UniProt Q13625: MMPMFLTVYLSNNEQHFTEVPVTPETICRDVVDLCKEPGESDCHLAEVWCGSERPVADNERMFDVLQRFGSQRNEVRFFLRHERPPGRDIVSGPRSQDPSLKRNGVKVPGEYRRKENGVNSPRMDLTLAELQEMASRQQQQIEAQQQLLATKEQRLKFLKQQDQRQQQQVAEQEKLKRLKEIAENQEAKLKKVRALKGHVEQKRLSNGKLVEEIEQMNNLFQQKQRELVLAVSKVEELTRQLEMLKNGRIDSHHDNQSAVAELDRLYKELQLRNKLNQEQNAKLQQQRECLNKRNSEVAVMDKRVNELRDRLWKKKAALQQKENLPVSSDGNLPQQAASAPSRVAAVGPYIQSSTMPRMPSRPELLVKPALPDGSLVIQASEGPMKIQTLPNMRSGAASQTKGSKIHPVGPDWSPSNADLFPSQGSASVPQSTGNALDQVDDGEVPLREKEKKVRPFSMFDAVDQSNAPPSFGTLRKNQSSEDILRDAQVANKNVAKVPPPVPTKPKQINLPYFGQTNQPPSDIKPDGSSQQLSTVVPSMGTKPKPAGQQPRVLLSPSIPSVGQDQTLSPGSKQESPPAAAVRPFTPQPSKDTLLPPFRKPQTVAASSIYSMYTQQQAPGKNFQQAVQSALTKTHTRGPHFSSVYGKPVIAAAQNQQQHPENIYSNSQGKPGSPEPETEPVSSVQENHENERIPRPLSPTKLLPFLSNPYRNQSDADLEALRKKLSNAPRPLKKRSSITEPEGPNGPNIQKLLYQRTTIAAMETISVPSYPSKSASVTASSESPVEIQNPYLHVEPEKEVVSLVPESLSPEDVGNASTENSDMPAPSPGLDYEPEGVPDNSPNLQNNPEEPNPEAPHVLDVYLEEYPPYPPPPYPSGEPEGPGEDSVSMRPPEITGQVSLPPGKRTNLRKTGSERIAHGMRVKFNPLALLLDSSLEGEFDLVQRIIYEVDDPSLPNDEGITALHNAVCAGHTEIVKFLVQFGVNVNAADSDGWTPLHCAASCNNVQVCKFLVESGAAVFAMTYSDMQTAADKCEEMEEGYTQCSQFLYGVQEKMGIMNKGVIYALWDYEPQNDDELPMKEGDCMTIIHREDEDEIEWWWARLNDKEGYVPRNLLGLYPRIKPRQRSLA
UniProt Q9H3N1: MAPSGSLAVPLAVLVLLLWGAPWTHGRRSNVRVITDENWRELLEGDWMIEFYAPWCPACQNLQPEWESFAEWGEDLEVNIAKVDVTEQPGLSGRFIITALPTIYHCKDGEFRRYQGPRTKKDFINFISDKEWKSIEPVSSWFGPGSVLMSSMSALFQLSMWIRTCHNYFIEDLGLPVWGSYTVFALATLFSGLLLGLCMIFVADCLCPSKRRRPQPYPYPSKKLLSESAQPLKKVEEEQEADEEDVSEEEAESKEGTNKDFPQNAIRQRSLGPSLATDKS
UniProt Q5JTV8: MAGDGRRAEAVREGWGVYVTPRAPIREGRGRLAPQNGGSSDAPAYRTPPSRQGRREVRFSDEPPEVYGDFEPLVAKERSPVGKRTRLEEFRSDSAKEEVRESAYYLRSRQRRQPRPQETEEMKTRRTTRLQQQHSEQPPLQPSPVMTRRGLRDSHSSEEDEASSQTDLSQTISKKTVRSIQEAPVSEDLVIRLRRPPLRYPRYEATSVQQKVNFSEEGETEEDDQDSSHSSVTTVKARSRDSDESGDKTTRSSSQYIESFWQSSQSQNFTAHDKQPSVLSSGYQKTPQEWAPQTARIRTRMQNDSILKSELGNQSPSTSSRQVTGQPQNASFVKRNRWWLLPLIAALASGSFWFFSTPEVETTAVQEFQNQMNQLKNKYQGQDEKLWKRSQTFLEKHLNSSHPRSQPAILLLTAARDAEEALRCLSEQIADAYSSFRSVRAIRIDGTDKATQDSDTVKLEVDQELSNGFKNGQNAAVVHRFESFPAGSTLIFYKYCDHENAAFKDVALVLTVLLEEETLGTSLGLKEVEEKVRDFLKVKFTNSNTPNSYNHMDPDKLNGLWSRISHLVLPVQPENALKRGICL
UniProt Q4ZIN3: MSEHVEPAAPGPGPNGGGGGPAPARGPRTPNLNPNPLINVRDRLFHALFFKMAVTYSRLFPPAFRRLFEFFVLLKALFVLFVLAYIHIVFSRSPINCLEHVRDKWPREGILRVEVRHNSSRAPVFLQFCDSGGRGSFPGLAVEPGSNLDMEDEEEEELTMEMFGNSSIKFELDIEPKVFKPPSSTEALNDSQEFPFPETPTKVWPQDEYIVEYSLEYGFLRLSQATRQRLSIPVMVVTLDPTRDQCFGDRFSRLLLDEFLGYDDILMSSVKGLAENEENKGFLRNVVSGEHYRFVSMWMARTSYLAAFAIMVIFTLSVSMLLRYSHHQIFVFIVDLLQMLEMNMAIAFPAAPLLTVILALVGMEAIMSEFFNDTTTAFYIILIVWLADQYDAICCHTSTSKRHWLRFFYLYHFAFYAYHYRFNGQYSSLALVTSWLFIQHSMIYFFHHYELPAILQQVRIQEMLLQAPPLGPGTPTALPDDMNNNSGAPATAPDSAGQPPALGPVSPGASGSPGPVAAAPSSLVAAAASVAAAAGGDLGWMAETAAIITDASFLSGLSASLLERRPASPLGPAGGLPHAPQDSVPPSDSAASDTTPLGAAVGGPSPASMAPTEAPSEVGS
UniProt P82094: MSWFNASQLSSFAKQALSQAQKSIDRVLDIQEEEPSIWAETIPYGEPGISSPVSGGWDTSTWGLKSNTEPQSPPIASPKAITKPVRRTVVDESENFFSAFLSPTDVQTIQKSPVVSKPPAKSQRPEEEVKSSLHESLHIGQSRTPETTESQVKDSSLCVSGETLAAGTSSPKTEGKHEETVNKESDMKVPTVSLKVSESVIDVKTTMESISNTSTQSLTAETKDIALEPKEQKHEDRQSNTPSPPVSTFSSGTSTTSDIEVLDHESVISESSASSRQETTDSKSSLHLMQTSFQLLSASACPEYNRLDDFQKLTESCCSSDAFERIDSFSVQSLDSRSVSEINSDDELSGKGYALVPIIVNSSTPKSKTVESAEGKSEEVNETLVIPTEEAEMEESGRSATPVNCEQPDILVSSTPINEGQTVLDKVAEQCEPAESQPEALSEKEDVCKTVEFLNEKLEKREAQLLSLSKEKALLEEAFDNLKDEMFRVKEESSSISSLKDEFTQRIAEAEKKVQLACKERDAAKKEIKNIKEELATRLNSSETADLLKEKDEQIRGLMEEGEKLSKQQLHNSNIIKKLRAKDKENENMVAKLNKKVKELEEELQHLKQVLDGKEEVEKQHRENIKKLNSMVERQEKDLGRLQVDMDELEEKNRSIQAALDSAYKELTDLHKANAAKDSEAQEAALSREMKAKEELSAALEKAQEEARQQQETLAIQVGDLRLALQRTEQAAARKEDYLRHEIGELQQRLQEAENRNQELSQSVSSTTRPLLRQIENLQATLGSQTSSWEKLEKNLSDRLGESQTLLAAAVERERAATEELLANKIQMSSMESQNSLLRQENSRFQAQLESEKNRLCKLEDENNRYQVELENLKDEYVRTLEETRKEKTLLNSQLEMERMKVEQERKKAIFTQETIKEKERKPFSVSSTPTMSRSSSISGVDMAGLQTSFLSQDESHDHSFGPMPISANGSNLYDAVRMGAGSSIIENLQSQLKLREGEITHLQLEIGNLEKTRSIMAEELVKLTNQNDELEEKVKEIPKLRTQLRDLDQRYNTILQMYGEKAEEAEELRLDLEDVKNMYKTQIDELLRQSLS
UniProt P63313: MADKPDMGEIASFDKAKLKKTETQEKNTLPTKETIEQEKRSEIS
UniProt P11387: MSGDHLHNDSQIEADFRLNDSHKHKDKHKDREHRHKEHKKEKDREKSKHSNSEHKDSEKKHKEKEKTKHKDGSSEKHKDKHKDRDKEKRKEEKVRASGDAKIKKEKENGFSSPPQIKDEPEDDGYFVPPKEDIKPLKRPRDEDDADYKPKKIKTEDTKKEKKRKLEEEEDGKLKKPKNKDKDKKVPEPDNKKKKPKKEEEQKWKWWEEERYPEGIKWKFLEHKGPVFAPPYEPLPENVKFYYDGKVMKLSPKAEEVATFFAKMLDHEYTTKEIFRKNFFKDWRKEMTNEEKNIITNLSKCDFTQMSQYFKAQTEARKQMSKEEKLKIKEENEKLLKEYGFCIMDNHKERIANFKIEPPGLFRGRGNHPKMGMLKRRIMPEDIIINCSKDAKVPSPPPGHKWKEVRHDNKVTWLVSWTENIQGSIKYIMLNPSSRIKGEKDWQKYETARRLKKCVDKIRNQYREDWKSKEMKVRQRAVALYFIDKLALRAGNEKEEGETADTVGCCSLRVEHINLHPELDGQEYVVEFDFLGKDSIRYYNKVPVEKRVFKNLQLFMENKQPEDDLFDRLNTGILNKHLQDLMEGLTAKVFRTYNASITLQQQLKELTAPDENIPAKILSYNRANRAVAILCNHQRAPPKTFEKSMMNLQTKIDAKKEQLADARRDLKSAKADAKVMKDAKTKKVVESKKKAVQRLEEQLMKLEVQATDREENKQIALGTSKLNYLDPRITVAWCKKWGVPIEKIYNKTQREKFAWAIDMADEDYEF
UniProt P11388: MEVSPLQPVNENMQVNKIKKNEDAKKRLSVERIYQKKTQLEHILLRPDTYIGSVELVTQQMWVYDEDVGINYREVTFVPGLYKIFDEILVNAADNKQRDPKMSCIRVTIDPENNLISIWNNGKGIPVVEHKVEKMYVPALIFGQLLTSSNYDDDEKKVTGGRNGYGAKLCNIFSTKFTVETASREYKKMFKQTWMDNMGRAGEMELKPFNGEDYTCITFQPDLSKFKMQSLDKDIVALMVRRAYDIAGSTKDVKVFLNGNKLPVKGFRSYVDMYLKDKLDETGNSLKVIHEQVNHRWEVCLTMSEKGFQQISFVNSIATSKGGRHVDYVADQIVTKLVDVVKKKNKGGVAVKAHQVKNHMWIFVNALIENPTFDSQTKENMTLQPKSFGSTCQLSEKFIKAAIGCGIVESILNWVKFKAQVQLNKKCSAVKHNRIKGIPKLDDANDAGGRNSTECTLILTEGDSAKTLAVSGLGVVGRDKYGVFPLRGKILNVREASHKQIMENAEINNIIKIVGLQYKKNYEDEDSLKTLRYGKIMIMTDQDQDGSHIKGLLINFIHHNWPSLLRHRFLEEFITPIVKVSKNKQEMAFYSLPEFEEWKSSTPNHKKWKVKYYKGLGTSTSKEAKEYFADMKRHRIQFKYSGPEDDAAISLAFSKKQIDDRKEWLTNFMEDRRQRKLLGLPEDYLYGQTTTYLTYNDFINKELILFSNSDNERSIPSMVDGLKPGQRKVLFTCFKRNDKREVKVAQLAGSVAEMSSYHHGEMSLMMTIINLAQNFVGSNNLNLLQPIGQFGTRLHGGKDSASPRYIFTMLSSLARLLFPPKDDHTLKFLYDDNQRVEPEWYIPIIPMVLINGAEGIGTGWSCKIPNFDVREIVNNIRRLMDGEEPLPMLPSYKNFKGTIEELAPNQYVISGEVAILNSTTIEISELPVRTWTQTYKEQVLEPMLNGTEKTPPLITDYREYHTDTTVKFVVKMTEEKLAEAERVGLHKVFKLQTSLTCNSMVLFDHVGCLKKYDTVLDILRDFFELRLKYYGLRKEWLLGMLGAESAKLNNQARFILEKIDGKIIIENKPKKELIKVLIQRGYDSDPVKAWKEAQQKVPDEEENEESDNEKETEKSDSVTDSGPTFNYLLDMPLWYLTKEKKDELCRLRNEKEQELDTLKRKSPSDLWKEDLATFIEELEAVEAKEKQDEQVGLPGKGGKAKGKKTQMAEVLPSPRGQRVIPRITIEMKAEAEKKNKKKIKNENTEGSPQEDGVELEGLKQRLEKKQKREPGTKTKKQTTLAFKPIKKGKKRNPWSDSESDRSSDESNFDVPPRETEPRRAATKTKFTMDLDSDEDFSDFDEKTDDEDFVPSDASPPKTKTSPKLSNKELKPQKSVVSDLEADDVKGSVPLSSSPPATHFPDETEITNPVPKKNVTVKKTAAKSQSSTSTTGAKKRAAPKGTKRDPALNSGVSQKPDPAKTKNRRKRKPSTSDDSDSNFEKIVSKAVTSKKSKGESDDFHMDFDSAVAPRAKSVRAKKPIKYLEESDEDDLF

Experiments:
Test in all cases: log2 fold change, soluble protein after heating vs DMSO (PISA); higher = thermal stabilisation; K562 lysate, 10 uM; active = over 0.2 and 3.5 SD of the protein, either way, in both replicates (recomputed)
lapatinib = compound: CS(=O)(=O)CCNCc1ccc(-c2ccc3ncnc(Nc4ccc(OCc5cccc(F)c5)c(Cl)c4)c3c2)o1 [lapatinib]
In short: (§1)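 K562 pellets were dounce-homogenised in PBS pH 7.4 containing 1 mM MgCl2, and the crude extract, at 1 mg/mL protein, was exposed to 10 μM compound for 30 min. Aliquots were heated for 3 min across 48°C-58°C, pooled, brought to 0.5% NP-40 at 4°C and spun at 21,000xg for 90 min, with the supernatant taken as soluble protein. TMTpro 16plex LC-MS/MS with equalised channel sums quantified that protein. Values are log-two fold changes in thermal stability relative to solvent controls, taken from duplicates.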

pictilisib = compound: CS(=O)(=O)N1CCN(Cc2cc3nc(-c4cccc5[nH]ncc45)nc(N4CCOCC4)c3s2)CC1 [pictilisib]
In short: as §1

crizotinib = compound: C[C@@H](Oc1cc(-c2cnn(C3CCNCC3)c2)cnc1N)c1c(Cl)ccc(F)c1Cl [crizotinib]
In short: as §1

[1] = compound: C[C@H](C1=CC=C(C=C1)C(=O)NC2=C3C=CNC3=NC=C2)N
In short: as §1

duvelisib = compound: C[C@H](Nc1ncnc2nc[nH]c12)c1cc2cccc(Cl)c2c(=O)n1-c1ccccc1 [duvelisib]
In short: as §1

gandotinib = compound: Cc1cc(Nc2cc(CN3CCOCC3)c3nc(C)c(Cc4ccc(Cl)cc4F)n3n2)n[nH]1 [gandotinib]
In short: as §1

tozasertib = compound: Cc1cc(Nc2cc(N3CCN(C)CC3)nc(Sc3ccc(NC(=O)C4CC4)cc3)n2)n[nH]1 [tozasertib]
In short: as §1

doramapimod = compound: Cc1ccc(-n2nc(C(C)(C)C)cc2NC(=O)Nc2ccc(OCCN3CCOCC3)c3ccccc23)cc1 [doramapimod]
In short: as §1

bafetinib = compound: Cc1ccc(NC(=O)c2ccc(CN3CC[C@H](N(C)C)C3)c(C(F)(F)F)c2)cc1Nc1nccc(-c2cncnc2)n1 [bafetinib]
In short: as §1

[2] = compound: Cc1cccc(CC(=O)N2CCc3c2ccc(-c2cn(C)c4ncnc(N)c24)c3F)n1
In short: as §1

nilotinib = compound: Cc1cn(-c2cc(NC(=O)c3ccc(C)c(Nc4nccc(-c5cccnc5)n4)c3)cc(C(F)(F)F)c2)cn1 [nilotinib]
In short: as §1

[3] = compound: Cc1nc(Nc2n[nH]c3c2CN(C(=O)N[C@H](CN(C)C)c2ccccc2)C3(C)C)c2sccc2n1
In short: as §1

dasatinib = compound: Cc1nc(Nc2ncc(C(=O)Nc3c(C)cccc3Cl)s2)cc(N2CCN(CCO)CC2)n1 [dasatinib]
In short: as §1

[4] = compound: Cc1ncc(-c2ccnc(Nc3ccc(S(C)(=O)=O)cc3)n2)n1C(C)C
In short: as §1

[5] = compound: Cn1cc(-c2ccc3c(c2)CCN3C(=O)Cc2cccc(C(F)(F)F)c2)c2c(N)ncnc21
In short: as §1

quisinostat = compound: Cn1cc(CNCC2CCN(c3ncc(C(=O)NO)cn3)CC2)c2ccccc21 [quisinostat]
In short: as §1

tipifarnib = compound: Cn1cncc1[C@@](N)(c1ccc(Cl)cc1)c1ccc2c(c1)c(-c1cccc(Cl)c1)cc(=O)n2C [tipifarnib]
In short: as §1

[6] = compound: NC(=O)Nc1cc(-c2cccc(F)c2)sc1C(=O)N[C@H]1CCCNC1
In short: as §1

[7] = compound: NC(=O)c1cnc(N[C@@H]2CCCC[C@@H]2N)nc1Nc1cccc(-n2nccn2)c1
In short: as §1

[8] = compound: NC1(c2ccc(-c3nc4ccn5c(=O)[nH]nc5c4cc3-c3ccccc3)cc2)CCC1
In short: as §1

Target	log2 fold change (lapatinib)	log2 fold change (pictilisib)	log2 fold change (crizotinib)	log2 fold change [1]	log2 fold change (duvelisib)	log2 fold change (gandotinib)	log2 fold change (tozasertib)	log2 fold change (doramapimod)	log2 fold change (bafetinib)	log2 fold change [2]	log2 fold change (nilotinib)	log2 fold change [3]	log2 fold change (dasatinib)	log2 fold change [4]	log2 fold change [5]	log2 fold change (quisinostat)	log2 fold change (tipifarnib)	log2 fold change [6]	log2 fold change [7]	log2 fold change [8]
TPST2 (UniProt O60704)	inactive: 0.028	inactive: 0.621	inactive: -0.046	active: -0.671	inactive: -0.029	inactive: 0.109	inactive: -0.043	inactive: 0.057	inactive: 0.022	inactive: 0.126	inactive: -0.02	inactive: -0.03	inactive: -0.007	inactive: 0.016	inactive: 0.008	inactive: -0.076	inactive: -0.058	inactive: 0.064	inactive: -0.064	inactive: -0.087
TP53BP2 isoform 3 (UniProt Q13625)	inactive: 0.009	inactive: -0.072	inactive: -0.002	inactive: -0.026	inactive: -0.041	inactive: 0.002	inactive: -0.116	inactive: 0.03	inactive: 0.028	inactive: -0.054	inactive: -0.024	inactive: -0.034	inactive: 0.013	inactive: 0.01	inactive: -0.046	inactive: -0.067	inactive: -0.018	inactive: 0.028	inactive: -0.022	inactive: 0.022
TMPO (UniProt P42166)	inactive: 0.018	inactive: -0.012	inactive: 0.016	inactive: -0.179	inactive: 0.023	inactive: -0.048	inactive: 0.016	inactive: -0.017	inactive: -0.021	inactive: 0.034	inactive: 0.05	inactive: -0.178	inactive: -0.069	inactive: -0.036	inactive: 0.029	inactive: -0.041	inactive: -0.018	inactive: 0.035	inactive: 0.031	inactive: -0.006
TMEM199 (UniProt Q8N511)	inactive: -0.034	inactive: -0.035	inactive: 0.062	inactive: -0.053	inactive: 0.051	inactive: 0.016	inactive: 0.074	inactive: -0.068	inactive: -0.016	inactive: 0.099	inactive: 0.005	inactive: 0.005	inactive: -0.011	inactive: 0.001	inactive: 0.046	inactive: 0.031	inactive: 0.026	inactive: 0	inactive: 0.005	inactive: 0.068
TMX1 (UniProt Q9H3N1)	inactive: -0.038	inactive: -0.003	inactive: 0.081	inactive: -0.032	inactive: -0.016	inactive: 0.045	inactive: 0.036	inactive: 0.039	inactive: -0.038	inactive: -0.017	inactive: -0.011	inactive: 0	inactive: -0.021	inactive: -0.031	inactive: -0.008	inactive: 0.125	inactive: -0.025	inactive: -0.022	inactive: 0.123	inactive: 0.039
TOR1AIP1 isoform 3 (UniProt Q5JTV8)	inactive: -0.017	inactive: -0.012	inactive: 0.008	inactive: -0.043	inactive: -0.031	inactive: 0.048	inactive: -0.019	inactive: -0.008	inactive: 0.018	inactive: 0.087	inactive: 0.022	inactive: 0.03	inactive: -0.013	inactive: -0.008	inactive: 0.043	inactive: 0.006	inactive: -0.021	inactive: 0.016	inactive: 0.018	inactive: 0.002
TMEM263 (UniProt Q8WUH6)	inactive: 0.149	inactive: 0.015	inactive: 0.06	inactive: -0.072	inactive: 0.02	inactive: 0.178	inactive: -0.066	inactive: 0.112	inactive: -0.028	inactive: 0.208	inactive: 0.151	inactive: 0.153	inactive: -0.134	inactive: -0.079	inactive: 0.011	inactive: 0.021	active: -0.512	inactive: 0.063	inactive: -0.021	inactive: -0.154
TPRKB (UniProt Q9Y3C4)	inactive: 0.012	inactive: 0.033	inactive: 0.009	inactive: 0.003	inactive: 0.028	inactive: 0.016	inactive: -0.092	inactive: -0.016	inactive: 0.048	inactive: -0.008	inactive: -0.006	inactive: 0.007	inactive: 0.012	inactive: 0.007	inactive: -0.02	inactive: -0.028	inactive: -0.031	inactive: 0.041	inactive: 0.04	inactive: 0.026
TMEM63B (UniProt Q5T3F8)	inactive: 0.008	inactive: -0.024	inactive: 0.028	inactive: -0.066	inactive: 0.057	inactive: 0.05	inactive: 0.035	inactive: 0.003	inactive: 0.046	inactive: 0.061	inactive: 0.044	inactive: -0.021	inactive: 0.101	inactive: 0.027	inactive: 0.036	inactive: 0.01	inactive: -0.013	inactive: -0.022	inactive: 0.001	inactive: 0.029
TMEM259 (UniProt Q4ZIN3)	inactive: -0.062	inactive: -0.035	inactive: -0.072	inactive: -0.079	inactive: 0.077	inactive: -0.081	inactive: -0.208	inactive: -0.077	inactive: -0.021	inactive: 0.055	inactive: 0.108	inactive: 0.015	inactive: -0.027	inactive: -0.056	inactive: -0.157	inactive: -0.097	inactive: -0.081	inactive: 0.052	inactive: 0.049	inactive: 0.018
TNIK isoform 4 (UniProt Q9UKE5)	inactive: -0.017	inactive: 0.012	inactive: -0.055	inactive: 0.038	inactive: 0.004	inactive: 0.153	inactive: 0.098	inactive: 0.205	inactive: -0.007	inactive: -0.04	inactive: -0.019	inactive: 0.087	inactive: 0.203	inactive: 0.11	inactive: -0.011	inactive: -0.198	inactive: -0.022	active: 0.483	inactive: 0.08	inactive: -0.021
TMF1 isoform 2 (UniProt P82094)	inactive: 0.004	inactive: -0.018	inactive: 0.001	inactive: -0.047	inactive: 0.002	inactive: 0.079	inactive: 0.014	inactive: -0.002	inactive: -0.019	inactive: 0.036	inactive: -0.073	inactive: -0.008	inactive: 0.005	inactive: -0.035	inactive: -0.001	inactive: -0.008	inactive: -0.064	inactive: -0.038	inactive: -0.011	inactive: -0.044
TMSB10 (UniProt P63313)	inactive: 0.005	inactive: 0.084	inactive: 0.009	inactive: 0.256	inactive: 0.059	inactive: -0.117	inactive: -0.117	inactive: 0.016	inactive: 0.018	inactive: -0.098	inactive: 0.046	inactive: 0.022	inactive: 0.022	inactive: 0.258	inactive: -0.313	inactive: -0.055	inactive: 0.102	inactive: -0.072	inactive: -0.081	inactive: -0.02
TOP1 (UniProt P11387)	inactive: -0.012	inactive: -0.021	inactive: -0.024	inactive: 0.003	inactive: 0.003	inactive: -0.099	inactive: 0.032	inactive: -0.028	inactive: -0.04	inactive: 0.017	inactive: -0.005	inactive: 0.01	inactive: 0.017	inactive: 0.008	inactive: 0.013	inactive: 0.01	inactive: 0.017	inactive: 0.029	inactive: -0.003	inactive: -0.014
TOP2A isoform 4 (UniProt P11388)	inactive: -0.025	inactive: 0	inactive: -0.03	inactive: -0.118	inactive: -0.012	inactive: 0.031	inactive: -0.034	inactive: 0.009	inactive: -0.056	inactive: 0.148	inactive: -0.023	inactive: 0.021	inactive: 0.058	inactive: -0.029	inactive: -0.019	inactive: -0.006	inactive: 0.043	inactive: 0.067	inactive: -0.015	inactive: -0.03
TMEM214 (UniProt Q6NUQ4)	inactive: -0.028	inactive: -0.02	inactive: -0.009	inactive: 0.045	inactive: -0.064	inactive: -0.058	inactive: 0.055	inactive: 0.023	inactive: -0.026	inactive: 0.038	inactive: -0.046	inactive: 0.018	inactive: -0.017	inactive: 0.004	inactive: -0.012	inactive: 0.014	inactive: -0.013	inactive: 0.05	inactive: -0.002	inactive: 0.048

Some of the entries above in another layout:

| Target | log2 fold change (lapatinib) | log2 fold change (pictilisib) | log2 fold change (crizotinib) | log2 fold change [1] | log2 fold change (duvelisib) | log2 fold change (gandotinib) | log2 fold change (tozasertib) | log2 fold change (doramapimod) | log2 fold change (bafetinib) | log2 fold change [2] | log2 fold change (nilotinib) | log2 fold change [3] | log2 fold change (dasatinib) | log2 fold change [4] | log2 fold change [5] | log2 fold change (quisinostat) | log2 fold change (tipifarnib) | log2 fold change [6] | log2 fold change [7] | log2 fold change [8] |
| --- | --- | --- | --- | --- | --- | --- | --- | --- | --- | --- | --- | --- | --- | --- | --- | --- | --- | --- | --- | --- |
| TMEM263 (UniProt Q8WUH6) | inactive: 0.149 | inactive: 0.015 | inactive: 0.06 | inactive: -0.072 | inactive: 0.02 | inactive: 0.178 | inactive: -0.066 | inactive: 0.112 | inactive: -0.028 | inactive: 0.208 | inactive: 0.151 | inactive: 0.153 | inactive: -0.134 | inactive: -0.079 | inactive: 0.011 | inactive: 0.021 | active: -0.512 | inactive: 0.063 | inactive: -0.021 | inactive: -0.154 |
| TPRKB (UniProt Q9Y3C4) | inactive: 0.012 | inactive: 0.033 | inactive: 0.009 | inactive: 0.003 | inactive: 0.028 | inactive: 0.016 | inactive: -0.092 | inactive: -0.016 | inactive: 0.048 | inactive: -0.008 | inactive: -0.006 | inactive: 0.007 | inactive: 0.012 | inactive: 0.007 | inactive: -0.02 | inactive: -0.028 | inactive: -0.031 | inactive: 0.041 | inactive: 0.04 | inactive: 0.026 |
